Data from patent publication US9254308B2, “Kits and methods for the treatment of cancer using gliadin peptides” (BARMARSA RESEARCH LLC, priority 2013, dated 2016).
Part of at least one peptide drawing is inferred or uncertain, most often the ends. Where no end group is shown, it is not given here.

Legend:
[1] = test system: NCI-H1975 NSCLC cells (EGFR L858R, T790M); assay: MTT growth inhibition, NCI-H1975 cells, 72-hour treatment; conditions: NCI-H1975, 72 h
cancer cells = conditions: Barone et al. PLoS ONE 2010; cited from earlier work
A549 cells [2] = assay: TUNEL apoptosis assay, A549 cells; format: cell-based, human; conditions: A549, 72 h
[3] = test system: PANC-1 pancreatic carcinoma cells; assay: MTT growth inhibition, PANC-1 cells, 72-hour treatment; conditions: PANC-1, 72 h
[4] = test system: cisplatin-resistant A549 cells; assay: Cell count, surviving cisplatin-resistant A549 cells, 7-day gliadin treatment; format: cell-based, human; conditions: for % Inhibition / Cell Number/mL: surviving cisplatin-resistant A549 cells, day 7
PANC-1 cells = assay: Cell count, PANC-1 cells, 14-day treatment regimen; format: cell-based, human; conditions: PANC-1, 14 days; 70 μg/mL gliadin
Description: All treatments were conducted in triplicate. […] Media was refreshed with the respective treatments every 72 hours. After 14 days of treatment, cells were trypsinized and counted.

[5] = test system: Hepatocyte growth factor-regulated tyrosine kinase substrate (HRS); conditions: after treatment of cells; Barone 2010; cited from earlier work
A549 cells [6] = assay: Cell count, A549 cells, 14-day treatment regimen; format: cell-based, human; conditions: A549, 14 days; 70 μg/mL gliadin
Description: All treatments were conducted in triplicate. […] Media was refreshed with the respective treatments every 72 hours.

A549 NSCLC cells = assay: MTT growth inhibition, A549 cells, 72-hour treatment; conditions: A549, 72 h
[7] = test system: 5-FU-resistant PANC-1 cells; assay: Cell count, surviving 5-FU-resistant PANC-1 cells, 7-day gliadin treatment; format: cell-based, human
Description: In order to examine the effects of alpha-gliadin peptide p31-43 on PANC-1 cells exposed to 5-FU for an extended period of time (14 days), an experiment was conducted on the surviving, i.e., resistant, cell population (4%) from the previous experiment. Briefly, after counting viable cells on day 14 of treatment, surviving cells were replated at a density of 5,000 cells per well. The following day, cells were treated with vehicle or 100 μg/mL or 200 μg/mL of alpha-gliadin peptide p31-43. Media containing the respective treatments was refreshed on day 3 and 6. On day 7, cells were trypsinized and counted.

LGQQQPFPPQQPY [gliadin, alpha-gliadin peptide p31-43]
% Inhibition ([1]; 5 μg/mL gliadin alone): 26.0%
Mean absorbance (570 nm) ([1]; 5 μg/mL gliadin alone): 1.51
% Inhibition ([1]; 20 μg/mL gliadin alone): 21.1%
Mean absorbance (570 nm) ([1]; 20 μg/mL gliadin alone): 1.61
% Inhibition ([1]; 70 μg/mL gliadin alone): 36.3%
Mean absorbance (570 nm) ([1]; 70 μg/mL gliadin alone): 1.30
effect on cancer cell proliferation (cancer cells): induces cell proliferation
Mean % apoptotic (A549 cells [2]; 100 μg/mL gliadin): 37%
Mean % apoptotic (A549 cells [2]; 200 μg/mL gliadin): 36%
Mean % apoptotic (A549 cells [2]; 500 μg/mL gliadin): 38.5%
% Inhibition ([3]; 5 μg/mL gliadin alone): 15.0%
Mean absorbance (570 nm) ([3]; 5 μg/mL gliadin alone): 1.59
% Inhibition ([3]; 20 μg/mL gliadin alone): 25.7%
Mean absorbance (570 nm) ([3]; 20 μg/mL gliadin alone): 1.39
% Inhibition ([3]; 70 μg/mL gliadin alone): 26.2%
Mean absorbance (570 nm) ([3]; 70 μg/mL gliadin alone): 1.38
cell proliferation of surviving cisplatin-treated A549 cells ([4]; 100 μg/mL or 200 μg/mL for 7 additional days): cell proliferation was significantly suppressed
% Inhibition ([4]; 100 μg/mL gliadin): 50%
Cell Number/mL ([4]; 100 μg/mL gliadin): 1,300 /mL
% Inhibition ([4]; 200 μg/mL gliadin): 65%
Cell Number/mL ([4]; 200 μg/mL gliadin): 900 mL⁻¹
% Inhibition (PANC-1 cells): 0%
Mean Cell Number/mL (PANC-1 cells): 833,800 /mL
amount of HRS in the cytosol [5]: increased
membrane-associated HRS [5]: decreased
% Inhibition (A549 cells [6]): 11%
Mean Cell Number/mL (A549 cells [6]): 325,217 /mL
% Inhibition (A549 NSCLC cells; 5 μg/mL gliadin alone): 0%
Mean absorbance (570 nm) (A549 NSCLC cells; 5 μg/mL gliadin alone): 1.54
% Inhibition (A549 NSCLC cells; 20 μg/mL gliadin alone): 3.4%
Mean absorbance (570 nm) (A549 NSCLC cells; 20 μg/mL gliadin alone): 1.44
% Inhibition (A549 NSCLC cells; 70 μg/mL gliadin alone): 9.4%
Mean absorbance (570 nm) (A549 NSCLC cells; 70 μg/mL gliadin alone): 1.35
% Inhibition ([7]; day 7, 100 μg/ml gliadin): 55%
Cell Number/mL ([7]; day 7, 100 μg/ml gliadin): 3700 mL⁻¹
% Inhibition ([7]; day 7, 200 μg/ml gliadin): 77%
Cell Number/mL ([7]; day 7, 200 μg/ml gliadin): 1900 mL⁻¹
